No constants are given. Whether binding was seen depends on the method and setting. Some results given as binding are weak or reduced against the parent protein; the word gives no strength.
Assays:
[1] = biological target: Listeriolysin O Y406A mutant (Listeria monocytogenes) (UniProt P13128); assay: high-speed atomic force microscopy; 500 nM protein added to POPC:Chol 1:1 supported lipid bilayer on mica; 20 mM MES, pH 5.6, 100 mM NaCl, 5 mM MgCl2, room temperature; oligomers on the membrane; both purified
[2] = biological target: Listeriolysin O Y406A mutant (Listeria monocytogenes) (UniProt P13128); assay: transmission electron microscopy (negative stain); 500 nM protein with POPC:Chol multilamellar vesicles (10 mM lipids), 10 mM MES, 150 mM NaCl, pH 5.5, room temperature; contrasted with 1% uranyl acetate; oligomers on the membrane; both purified

The chains behind the UniProt entries cited, without tags or fusion partners. Where a name states a change or a piece, a line headed by the entry shows the natural chain unless it says otherwise.
UniProt P13128, whole entry, looked up, stated change not applied: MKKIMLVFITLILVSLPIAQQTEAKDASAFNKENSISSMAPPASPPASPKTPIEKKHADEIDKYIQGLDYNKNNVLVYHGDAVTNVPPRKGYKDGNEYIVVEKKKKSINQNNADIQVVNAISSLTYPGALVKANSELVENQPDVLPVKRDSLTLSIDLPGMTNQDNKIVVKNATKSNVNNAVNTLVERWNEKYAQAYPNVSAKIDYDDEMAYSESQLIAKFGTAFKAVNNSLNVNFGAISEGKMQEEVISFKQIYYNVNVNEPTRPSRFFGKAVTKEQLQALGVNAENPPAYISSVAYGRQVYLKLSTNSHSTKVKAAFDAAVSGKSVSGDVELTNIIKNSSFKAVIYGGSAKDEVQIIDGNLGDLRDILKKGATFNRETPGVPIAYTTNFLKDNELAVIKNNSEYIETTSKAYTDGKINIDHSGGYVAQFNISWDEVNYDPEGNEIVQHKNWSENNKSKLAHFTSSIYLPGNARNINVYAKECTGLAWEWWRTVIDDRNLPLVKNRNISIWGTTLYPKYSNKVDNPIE

Substance: Listeriolysin O Y406A mutant (from UniProt P13128 39-526)
- binding [1]: binds
- binding [2]: binds
